This is one part of the list. Further columns of the screen follow, without active or inactive calls. The list favours compounds with an active or inconclusive main result. Potencies come from curve fits of mixed quality, noted in brackets.
Assay: qHTS Assay to Find Inhibitors of Chronic Active B-Cell Receptor Signaling
Conditions: ABC-DLBCL IkBa-CBG/CBR reporter, luminescence ratio (green luciferase fused to IkBa over red control in TMD8 lymphoma cells), 4 h
Procedure, shortened: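 TMD8 human ABC-DLBCL cells with doxycycline-inducible IκBα–green luciferase fusion and unfused red luciferase, in 0.5% FBS medium; compounds up to 46 uM, 4 h at 37C. Green/red luminescence ratio, filter-overlap corrected, fitted to concentration-response curves.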

[1] = measured here: CBR red luminescence, cell number
[2] = measured here: IkBa-CBG green luminescence

Row | Compound | AC50 [1] | AC50 [2]
1 | CCc1c(C)sc(NC(=O)c2cc(C(C)C)on2)c1C#N | 2.24 µM [rising, full curve, poor fit] | –
2 | Cc1ccc(CNC(=O)c2ccc(CS(=O)(=O)Cc3ccc(F)cc3)o2)cc1 | 8.91 µM [rising, partial curve] | –
3 | CC1(C)S[C@@H]2[C@H](NC(=O)[C@H](N)c3ccc(O)cc3)C(=O)N2[C@H]1C(=O)O | 29.1 µM [rising, single point] | –
4 | Cc1cc(NC(=O)c2c(Cl)cccc2Cl)no1 | 17.8 µM [falling, partial curve, poor fit] | –
5 | CC(C)CC1(C)NC(=O)N(Cc2cc([N+](=O)[O-])cc3c2OCOC3)C1=O (centres undefined) | 0.316 µM [rising, full curve, poor fit] | –
6 | COC(=O)C1=C(C)NC(C)=C(C(=O)OC)C1c1ccc(N(C)C)cc1 | – | 23.1 µM [falling, partial curve, poor fit]
7 | N#CSCC(=O)c1cccc2ccccc12 | 23.1 µM [rising, single point] | 29.1 µM [falling, single point]
8 | CCc1nnc(NC(=O)c2ccc(S(=O)(=O)N3CCCc4ccccc43)cc2)o1 | 0.184 µM [falling, full curve, poor fit] | –
9 | NC(N)=NC(N)=Nc1ccc(SC(F)(F)F)cc1 | 16.4 µM [falling, partial curve] | –
10 | COc1ccc(/C=C2\COc3ccccc3C2=O)cc1OC | 29.1 µM [falling, single point] | –
11 | CC1CCc2c(C(=O)Nc3ccc(N4CCOCC4)cc3)csc2C1 (centres undefined) | 11.2 µM [rising, partial curve, poor fit] | –
12 | COC(=O)c1ccc(COc2ccccc2/C=C(\C#N)C(=O)Nc2c(C)cccc2C)cc1 | 18.4 µM [falling, partial curve] | 20.6 µM [falling, single point]
13 | COc1cccc(C(=O)Nc2ccc(NC(=O)C3CC3)cn2)c1 | 2 µM [falling, full curve] | –
14 | CCCC(=O)Nc1ccc(NC(=O)c2cc3ccccc3o2)c(OC)c1 | 31.6 µM [rising, single point] | –
15 | COc1ccc(-n2c(=O)[nH]c3c(C(N)=O)nc(C4CCCCC4)nc32)cc1 | 11.2 µM [rising, single point] | –
16 | COc1ccc(OC)c(CNC(=O)C2CCN(C(=O)N(C)C)CC2)c1 | 4.61 µM [falling, single point] | –
17 | CN(C)C(CNC(=O)CCCOc1ccccc1)c1ccco1 (centres undefined) | 29.1 µM [rising, single point] | –

Part of the list above in another layout:
Row	Compound	AC50 [1]	AC50 [2]
2	Cc1ccc(CNC(=O)c2ccc(CS(=O)(=O)Cc3ccc(F)cc3)o2)cc1	8.91 µM [rising, partial curve]	–
3	CC1(C)S[C@@H]2[C@H](NC(=O)[C@H](N)c3ccc(O)cc3)C(=O)N2[C@H]1C(=O)O	29.1 µM [rising, single point]	–

Source: PubChem BioAssay AID493014 (National Center for Advancing Translational Sciences (NCATS), 2011)
